Some of the results follow.
How the values were obtained:
Assay in all cases: glycan array binding signal (z-score within array); higher = stronger binding
Settings in all cases: glycan notation: IUPAC condensed, linker removed
[1] = molecular target: Neu5Ac(a2-3)Gal(b1-4)GlcNAc(b1-2)[Neu5Ac(a2-3)Gal(b1-4)GlcNAc(b1-4)]Man(a1-3)[GlcNAc(b1-4)][Neu5Ac(a2-3)Gal(b1-4)GlcNAc(b1-4)Man(a1-6)]Man(b1-4)GlcNAc(b1-4)GlcNAc
How it was run: (§1)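 Columns mapping to the same glycan were averaged after glycan names were converted to IUPAC-condensed notation. The data come from 3228 arrays in the Consortium for Functional Glycomics database, limited to those with an available protein sequence. Binding is reported as a within-array Z-score averaged across arrays of one protein sequence and across linkers.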

[2] = molecular target: Neu5Ac(a2-3)Gal(b1-4)GlcNAc(b1-2)[Neu5Ac(a2-3)Gal(b1-4)GlcNAc(b1-6)]Man(a1-6)[Neu5Ac(a2-3)Gal(b1-4)GlcNAc(b1-2)Man(a1-3)]Man(b1-4)GlcNAc(b1-4)GlcNAc
How it was run: as §1

[3] = molecular target: Neu5Ac(a2-3)Gal(b1-4)GlcNAc(b1-2)[Neu5Ac(a2-3)Gal(b1-4)GlcNAc(b1-6)]Man(a1-6)[Neu5Ac(a2-3)Gal(b1-4)GlcNAc(b1-2)Man(a1-3)][GlcNAc(b1-4)]Man(b1-4)GlcNAc(b1-4)GlcNAc
How it was run: as §1

[4] = molecular target: Neu5Ac(a2-3)Gal(b1-4)GlcNAc(b1-3)Gal
How it was run: as §1

[5] = molecular target: Neu5Ac(a2-3)Gal(b1-4)GlcNAc(b1-3)Gal(b1-3)GlcNAc
How it was run: as §1

[6] = molecular target: Neu5Ac(a2-3)Gal(b1-4)GlcNAc(b1-3)Gal(b1-4)GlcNAc
How it was run: as §1

[7] = molecular target: Neu5Ac(a2-3)Gal(b1-4)GlcNAc(b1-3)Gal(b1-4)GlcNAc(b1-2)Man(a1-3)[Neu5Ac(a2-3)Gal(b1-4)GlcNAc(b1-3)Gal(b1-4)GlcNAc(b1-2)Man(a1-6)]Man(b1-4)GlcNAc(b1-4)GlcNAc
How it was run: as §1

[8] = molecular target: Neu5Ac(a2-3)Gal(b1-4)GlcNAc(b1-3)Gal(b1-4)GlcNAc(b1-3)Gal(b1-4)GlcNAc
How it was run: as §1

[9] = molecular target: Neu5Ac(a2-3)Gal(b1-4)GlcNAc(b1-3)Gal(b1-4)GlcNAc(b1-3)Gal(b1-4)GlcNAc(b1-2)Man(a1-3)[Neu5Ac(a2-3)Gal(b1-4)GlcNAc(b1-3)Gal(b1-4)GlcNAc(b1-3)Gal(b1-4)GlcNAc(b1-2)Man(a1-6)]GalNAc
How it was run: as §1

[10] = molecular target: Neu5Ac(a2-3)Gal(b1-4)GlcNAc(b1-3)Gal(b1-4)GlcNAc(b1-3)GalNAc
How it was run: as §1

[11] = molecular target: Neu5Ac(a2-3)Gal(b1-4)GlcNAc(b1-3)Gal(b1-4)GlcNAc(b1-3)[Neu5Ac(a2-3)Gal(b1-4)GlcNAc(b1-3)Gal(b1-4)GlcNAc(b1-6)]GalNAc
How it was run: as §1

[12] = molecular target: Neu5Ac(a2-3)Gal(b1-4)GlcNAc(b1-3)Gal(b1-4)GlcNAc(b1-6)[Gal(b1-3)]GalNAc
How it was run: as §1

[13] = molecular target: Neu5Ac(a2-3)Gal(b1-4)GlcNAc(b1-3)Gal(b1-4)[Fuc(a1-3)]GlcNAc
How it was run: as §1

[14] = molecular target: Neu5Ac(a2-3)Gal(b1-4)GlcNAc(b1-3)GalNAc
How it was run: as §1

[15] = molecular target: Neu5Ac(a2-3)Gal(b1-4)GlcNAc(b1-3)[Neu5Ac(a2-3)Gal(b1-4)GlcNAc(b1-6)]GalNAc
How it was run: as §1

[16] = molecular target: Neu5Ac(a2-3)Gal(b1-4)GlcNAc(b1-6)GalNAc
How it was run: as §1

[17] = molecular target: Neu5Ac(a2-3)Gal(b1-4)GlcNAc(b1-6)[Gal(b1-3)]GalNAc
How it was run: as §1

[18] = molecular target: Neu5Ac(a2-3)Gal(b1-4)GlcNAc(b1-6)[Neu5Ac(a2-3)Gal(b1-3)]GalNAc
How it was run: as §1

[19] = molecular target: Neu5Ac(a2-3)Gal(b1-4)GlcNAc6S
How it was run: as §1

[20] = molecular target: Neu5Ac(a2-3)Gal(b1-4)[Fuc(a1-3)]GlcNAc
How it was run: as §1

[21] = molecular target: Neu5Ac(a2-3)Gal(b1-4)[Fuc(a1-3)]GlcNAc(b1-2)Man
How it was run: as §1

[22] = molecular target: Neu5Ac(a2-3)Gal(b1-4)[Fuc(a1-3)]GlcNAc(b1-3)Gal
How it was run: as §1

[23] = molecular target: Neu5Ac(a2-3)Gal(b1-4)[Fuc(a1-3)]GlcNAc(b1-3)Gal(b1-4)GlcNAc
How it was run: as §1

[24] = molecular target: Neu5Ac(a2-3)Gal(b1-4)[Fuc(a1-3)]GlcNAc(b1-3)Gal(b1-4)[Fuc(a1-3)]GlcNAc(b1-3)Gal(b1-4)[Fuc(a1-3)]GlcNAc
How it was run: as §1

[25] = molecular target: Neu5Ac(a2-3)Gal(b1-4)[Fuc(a1-3)]GlcNAc(b1-3)GalNAc
How it was run: as §1

[26] = molecular target: Neu5Ac(a2-3)Gal(b1-4)[Fuc(a1-3)]GlcNAc(b1-6)[Gal(b1-3)]GalNAc
How it was run: as §1

[27] = molecular target: Neu5Ac(a2-3)Gal(b1-4)[Fuc(a1-3)]GlcNAc(b1-6)[Neu5Ac(a2-3)Gal(b1-3)]GalNAc
How it was run: as §1

[28] = molecular target: Neu5Ac(a2-3)Gal(b1-4)[Fuc(a1-3)]GlcNAc6S
How it was run: as §1

[29] = molecular target: Neu5Ac(a2-3)Gal6S(b1-4)GlcNAc
How it was run: as §1

[30] = molecular target: Neu5Ac(a2-3)Gal6S(b1-4)[Fuc(a1-3)]GlcNAc
How it was run: as §1

Neu5Ac(a2-3)GalNAc = molecular target: Neu5Ac(a2-3)GalNAc
How it was run: as §1

[31] = molecular target: Neu5Ac(a2-3)GalNAc(b1-4)GlcNAc
How it was run: as §1

[32] = molecular target: Neu5Ac(a2-3)[GalNAc(b1-4)]Gal(b1-4)Glc
How it was run: as §1

[33] = molecular target: Neu5Ac(a2-3)[GalNAc(b1-4)]Gal(b1-4)GlcNAc
How it was run: as §1

[34] = molecular target: Neu5Ac(a2-3)[GalNAc(b1-4)]Gal(b1-4)GlcNAc(b1-3)GalNAc
How it was run: as §1

[35] = molecular target: Neu5Ac(a2-3)[Neu5Ac(a2-6)]GalNAc
How it was run: as §1

Neu5Ac(a2-6)Gal = molecular target: Neu5Ac(a2-6)Gal
How it was run: as §1

B1: GS13599A-bth-520-23-520 (Bacteroides thetaiotaomicron) (protein)
chain: SEDTMDRINKDHDHTTSVASRFILADVITSTAFSNASGDINTYASSYIEYEVGVDNQLYYAEVRENEPSSSSTFNNSWNGIYSSLKNARIIIDQCGEGGRDHGNDVTRGMAEVMAAYNCALIADFFGDAPCSQAALVDEKGSPVYMTPKMDTQQEIYTQIISYLDDAIANLQKEDLADVTEQDFLYAGDADKWLKFAYGLKARYTMRLINRSSNKSADYEKVLDYVSKSFTSADDQAAFDIYDSNNINPFYGFYNSRAGFGASTSLGTKLLAYNDPRANRAFFTPIVDKKRSQVAANDPSLVPAPNGSPDQSTSKYGISAFVYAKTAPTLLMSYHELMFLKAEALCRLNRDAEDALKEAVVAGLLNAENSISIAIKELGSGLNTNSSEVITETSAGKYFDDVVKAKYAANPLQETMIQKYLAMWGASGEATETYNDFRRMKGLNENFITLTNPNNSSKFPLRYPYGNSDTAANPEVKAAYGNGDYVYSEPVWWAGGSR
glycan array binding signal (z-score) [1]: -0.405 | glycan array binding signal (z-score) [2]: 1.12 | glycan array binding signal (z-score) [3]: -0.568 | glycan array binding signal (z-score) [4]: -1.47 | glycan array binding signal (z-score) [5]: -1.22 | glycan array binding signal (z-score) [6]: -0.547 | glycan array binding signal (z-score) [7]: -0.07 | glycan array binding signal (z-score) [8]: -0.557 | glycan array binding signal (z-score) [9]: 0.402 | glycan array binding signal (z-score) [10]: -1.17 | glycan array binding signal (z-score) [11]: -0.132 | glycan array binding signal (z-score) [12]: -0.807 | glycan array binding signal (z-score) [13]: -0.897 | glycan array binding signal (z-score) [14]: -0.349 | glycan array binding signal (z-score) [15]: -0.894 | glycan array binding signal (z-score) [16]: 0.389 | glycan array binding signal (z-score) [17]: -0.773 | glycan array binding signal (z-score) [18]: -1.11 | glycan array binding signal (z-score) [19]: 0.046 | glycan array binding signal (z-score) [20]: -0.733 | glycan array binding signal (z-score) [21]: 0.366 | glycan array binding signal (z-score) [22]: -0.25 | glycan array binding signal (z-score) [23]: -0.66 | glycan array binding signal (z-score) [24]: -0.533 | glycan array binding signal (z-score) [25]: 0.851 | glycan array binding signal (z-score) [26]: -0.842 | glycan array binding signal (z-score) [27]: -0.041 | glycan array binding signal (z-score) [28]: -0.203 | glycan array binding signal (z-score) [29]: -0.146 | glycan array binding signal (z-score) [30]: -0.989 | glycan array binding signal (z-score) (Neu5Ac(a2-3)GalNAc): -0.665 | glycan array binding signal (z-score) [31]: -0.754 | glycan array binding signal (z-score) [32]: 0.178 | glycan array binding signal (z-score) [33]: -0.967 | glycan array binding signal (z-score) [34]: 1.34 | glycan array binding signal (z-score) [35]: -0.336 | glycan array binding signal (z-score) (Neu5Ac(a2-6)Gal): 0.331
